Reference: PMC6267591
Results are given in words; binding and its absence hold for the method and conditions named. In cells and extracts the contact can be indirect.

Amino acid sequences for entries named in this document (tags omitted). Residues count along the entry.
UniProt P15209, residues 32-821: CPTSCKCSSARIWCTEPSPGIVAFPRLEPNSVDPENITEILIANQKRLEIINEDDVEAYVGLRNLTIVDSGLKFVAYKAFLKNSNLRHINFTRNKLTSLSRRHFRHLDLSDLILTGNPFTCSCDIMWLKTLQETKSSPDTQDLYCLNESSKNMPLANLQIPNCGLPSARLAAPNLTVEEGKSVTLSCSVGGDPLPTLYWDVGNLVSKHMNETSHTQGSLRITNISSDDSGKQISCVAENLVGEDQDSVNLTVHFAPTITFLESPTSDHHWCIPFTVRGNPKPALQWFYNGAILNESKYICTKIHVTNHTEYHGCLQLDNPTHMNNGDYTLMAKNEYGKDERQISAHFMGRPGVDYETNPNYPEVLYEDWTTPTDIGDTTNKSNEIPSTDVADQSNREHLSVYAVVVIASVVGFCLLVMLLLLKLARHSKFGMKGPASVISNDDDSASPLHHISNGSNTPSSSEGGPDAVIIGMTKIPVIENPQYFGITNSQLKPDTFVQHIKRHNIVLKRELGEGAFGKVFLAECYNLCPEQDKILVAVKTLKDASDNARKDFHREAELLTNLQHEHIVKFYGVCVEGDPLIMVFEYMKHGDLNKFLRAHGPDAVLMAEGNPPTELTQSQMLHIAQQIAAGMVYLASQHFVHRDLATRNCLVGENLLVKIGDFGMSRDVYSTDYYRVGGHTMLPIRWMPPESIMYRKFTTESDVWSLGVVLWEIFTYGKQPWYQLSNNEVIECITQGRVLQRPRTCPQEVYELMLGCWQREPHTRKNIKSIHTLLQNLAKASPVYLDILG
UniProt P04629, residues 33-796: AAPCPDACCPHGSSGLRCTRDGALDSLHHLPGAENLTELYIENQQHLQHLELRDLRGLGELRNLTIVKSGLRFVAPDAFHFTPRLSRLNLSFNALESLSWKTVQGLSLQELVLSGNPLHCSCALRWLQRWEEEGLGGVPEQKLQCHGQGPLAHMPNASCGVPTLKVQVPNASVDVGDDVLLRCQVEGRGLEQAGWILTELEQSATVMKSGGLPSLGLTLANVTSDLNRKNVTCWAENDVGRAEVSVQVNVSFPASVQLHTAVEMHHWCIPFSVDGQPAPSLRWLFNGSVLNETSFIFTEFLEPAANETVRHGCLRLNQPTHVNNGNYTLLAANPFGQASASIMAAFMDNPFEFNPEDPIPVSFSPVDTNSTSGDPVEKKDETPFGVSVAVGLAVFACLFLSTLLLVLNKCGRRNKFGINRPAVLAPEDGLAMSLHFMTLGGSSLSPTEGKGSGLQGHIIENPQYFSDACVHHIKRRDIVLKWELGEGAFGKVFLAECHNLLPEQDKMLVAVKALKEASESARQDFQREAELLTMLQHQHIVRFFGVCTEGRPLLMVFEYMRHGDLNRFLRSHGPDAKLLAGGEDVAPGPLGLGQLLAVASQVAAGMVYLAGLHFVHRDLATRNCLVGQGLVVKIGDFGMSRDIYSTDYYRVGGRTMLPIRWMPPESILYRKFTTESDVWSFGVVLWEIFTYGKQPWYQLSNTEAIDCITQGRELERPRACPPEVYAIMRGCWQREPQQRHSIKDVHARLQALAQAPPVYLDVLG
UniProt Q63604, residues 32-821: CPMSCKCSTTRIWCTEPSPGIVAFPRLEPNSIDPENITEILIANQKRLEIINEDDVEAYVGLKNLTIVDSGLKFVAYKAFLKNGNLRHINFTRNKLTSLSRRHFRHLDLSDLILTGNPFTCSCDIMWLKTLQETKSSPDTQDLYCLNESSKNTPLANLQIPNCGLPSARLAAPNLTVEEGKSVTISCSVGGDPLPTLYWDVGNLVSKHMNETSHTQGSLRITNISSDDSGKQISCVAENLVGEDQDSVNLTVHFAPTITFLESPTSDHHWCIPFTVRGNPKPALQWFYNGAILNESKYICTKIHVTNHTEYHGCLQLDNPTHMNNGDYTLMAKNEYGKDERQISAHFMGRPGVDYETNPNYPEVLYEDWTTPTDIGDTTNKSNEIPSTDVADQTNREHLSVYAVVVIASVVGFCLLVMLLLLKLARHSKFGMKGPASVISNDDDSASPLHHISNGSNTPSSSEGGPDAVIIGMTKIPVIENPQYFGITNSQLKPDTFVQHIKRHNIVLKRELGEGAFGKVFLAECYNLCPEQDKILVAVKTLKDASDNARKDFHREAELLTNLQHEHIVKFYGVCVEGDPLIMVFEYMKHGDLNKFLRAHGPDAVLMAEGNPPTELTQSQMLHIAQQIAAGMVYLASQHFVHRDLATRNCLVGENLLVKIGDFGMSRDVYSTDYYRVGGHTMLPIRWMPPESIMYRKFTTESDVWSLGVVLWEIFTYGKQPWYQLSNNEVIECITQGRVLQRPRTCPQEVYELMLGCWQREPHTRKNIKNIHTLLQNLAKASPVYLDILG
UniProt Q16288, residues 32-839: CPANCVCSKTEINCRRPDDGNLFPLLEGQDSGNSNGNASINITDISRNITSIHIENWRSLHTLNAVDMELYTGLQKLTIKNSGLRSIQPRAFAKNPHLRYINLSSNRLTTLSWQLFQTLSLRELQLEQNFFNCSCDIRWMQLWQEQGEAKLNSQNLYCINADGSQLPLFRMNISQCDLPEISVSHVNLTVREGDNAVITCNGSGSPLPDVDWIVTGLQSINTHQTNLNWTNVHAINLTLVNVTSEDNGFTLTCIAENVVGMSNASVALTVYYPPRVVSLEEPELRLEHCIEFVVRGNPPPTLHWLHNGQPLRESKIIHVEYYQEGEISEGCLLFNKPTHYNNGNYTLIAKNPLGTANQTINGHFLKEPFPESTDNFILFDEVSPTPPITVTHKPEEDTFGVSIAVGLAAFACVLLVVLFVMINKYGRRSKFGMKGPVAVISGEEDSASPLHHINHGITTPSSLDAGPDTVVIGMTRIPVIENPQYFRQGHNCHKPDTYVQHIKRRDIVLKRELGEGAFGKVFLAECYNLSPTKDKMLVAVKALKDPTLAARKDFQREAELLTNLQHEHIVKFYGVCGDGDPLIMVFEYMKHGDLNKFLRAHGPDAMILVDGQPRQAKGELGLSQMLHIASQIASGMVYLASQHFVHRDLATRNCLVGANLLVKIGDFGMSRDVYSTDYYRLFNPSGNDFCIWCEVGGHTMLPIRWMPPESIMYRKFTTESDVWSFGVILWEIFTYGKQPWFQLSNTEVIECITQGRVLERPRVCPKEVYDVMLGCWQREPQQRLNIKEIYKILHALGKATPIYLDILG
UniProt P60879: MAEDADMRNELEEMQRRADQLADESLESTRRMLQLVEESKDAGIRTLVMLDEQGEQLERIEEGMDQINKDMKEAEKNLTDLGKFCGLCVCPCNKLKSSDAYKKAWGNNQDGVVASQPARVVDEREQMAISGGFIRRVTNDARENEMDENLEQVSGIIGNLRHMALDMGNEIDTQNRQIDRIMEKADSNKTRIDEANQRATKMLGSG
UniProt P63044: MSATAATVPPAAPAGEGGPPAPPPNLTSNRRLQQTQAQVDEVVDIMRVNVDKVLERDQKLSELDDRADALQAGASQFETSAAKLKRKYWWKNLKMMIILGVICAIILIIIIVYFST

How the values were obtained:
[1] = molecular target: TrkB receptor (endogenous, mouse brain) (mouse (endogenous in E15 and adult brain)) (UniProt P15209); assay: co-IP; endogenous proteins in E15 and adult mouse brain lysates (1% Triton X-100 lysis buffer); antibody overnight at 4°C in IP buffer (10 mM Tris pH 7, 140 mM NaCl, 1.5 mM EDTA), Protein G-sepharose 2 h at 4°C, Western blot
[2] = molecular target: TrkA-HA (UniProt P04629); assay: co-IP; lysates of transiently co-transfected HEK293 cells; anti-FLAG, anti-myc, anti-HA, anti-GFP, anti-TI-VAMP or HPC-1 antibodies, Protein G-sepharose 2 h at 4°C, Western blot
[3] = molecular target: TrkB-GFP (UniProt Q63604); assay: as above
[4] = molecular target: TrkC-myc (UniProt Q16288); assay: as above
[5] = molecular target: SNAP25 (endogenous, mouse brain) (mouse (endogenous in E15 and adult brain)) (UniProt P60879); assay: co-IP; endogenous proteins in E15 and adult mouse brain lysates (1% Triton X-100 lysis buffer); antibody overnight at 4°C in IP buffer (10 mM Tris pH 7, 140 mM NaCl, 1.5 mM EDTA), Protein G-sepharose 2 h at 4°C, Western blot
[6] = molecular target: VAMP2 (endogenous, mouse brain) (mouse (endogenous in E15 and adult brain)) (UniProt P63044); assay: as above

| binding [1] | binding [2] | binding [3] | binding [4] | Substance | also measured |
| --- | --- | --- | --- | --- | --- |
| – | no binding | no binding | no binding | SNAP25-FLAG (from UniProt P60879 1-206) | – |
| no binding | – | – | – | VAMP2 (endogenous, mouse brain) (from UniProt P63044 1-116) | – |
| – | no binding | no binding | no binding | VAMP2-FLAG (from UniProt P63044 1-116) | – |

The next lines start with the substance.

| Substance | binding [1] | binding [2] | binding [3] | binding [4] | also measured |
| --- | --- | --- | --- | --- | --- |
| SNAP25 (endogenous, mouse brain) (from UniProt P60879 1-206) | no binding | – | – | – | – |
| TrkB receptor (endogenous, mouse brain) (from UniProt P15209 32-821) | – | – | – | – | binding [5]: no binding; binding [6]: no binding |
